# Results: the supplement of paper PMC4604168 (melanoma cell lines)
# Some of the results follow. Many values rest on one well or one pass, so single values are uncertain.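 Imaging used 1,536-well plates; nuclei positive for cleaved PARP by antibody were divided by total DNA-stained nuclei to yield the apoptosis fraction. Doses for screening kept most cells viable, and cell lines differ markedly in resting and induced cleaved-PARP levels.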
# Tested on: WM3526
# Test: cleaved PARP positive nuclei fraction relative to DMSO control; melanoma cells; higher = more apoptosis
# Conditions: library dose: low library concentration; 72 h
row,SMILES,cleaved PARP positive nuclei fraction
1,"C[C@]12O[C@H](C[C@]1(O)CO)n1c3ccccc3c3c4c(c5c6ccccc6n2c5c31)CNC4=O [Lestaurtinib] + NC(=O)Nc1cc(-c2cccc(F)c2)sc1C(=O)N[C@H]1CCCNC1 [AZD7762] (first compound 0.004 µM, partner dose 0.02 µM)",168%
2,"Cn1cc(C2=C(c3cn(C4CCN(Cc5ccccn5)CC4)c4ccccc34)C(=O)NC2=O)c2ccccc21 [Enzastaurin] + CO[C@H]1C[C@@H]2CC[C@@H](C)[C@@](O)(O2)C(=O)C(=O)N2CCCC[C@H]2C(=O)O[C@H]([C@H](C)C[C@@H]2CC[C@@H](OCCO)[C@H](OC)C2)CC(=O)[C@H](C)/C=C(\C)[C@@H](O)[C@@H](OC)C(=O)[C@H](C)C[C@H](C)/C=C/C=C/C=C/1C [everolimus] (first compound 0.8 µM, partner dose 0.02 µM)",60.9%
3,"Cn1cc(C2=C(c3cn(C4CCN(Cc5ccccn5)CC4)c4ccccc34)C(=O)NC2=O)c2ccccc21 [Enzastaurin] + CC(C)(C)c1cnc(CSc2cnc(NC(=O)C3CCNCC3)s2)o1 [SNS-032] (first compound 0.8 µM, partner dose 0.01 µM)",31.1%
4,"C[C@@H](Oc1cc(-c2cnn(C3CCNCC3)c2)cnc1N)c1c(Cl)ccc(F)c1Cl [Crizotinib] + C[As](C)SC[C@H](NC(=O)CC[C@H](N)C(=O)O)C(=O)NCC(=O)O [Darinaparsin] (first compound 0.2 µM, partner dose 0.4 µM)",46%
5,"C[C@]12O[C@H](C[C@]1(O)CO)n1c3ccccc3c3c4c(c5c6ccccc6n2c5c31)CNC4=O [Lestaurtinib] + C[C@]1(c2nc3c(C(N)=O)cccc3[nH]2)CCCN1 [Veliparib] (first compound 0.004 µM, partner dose 1.4 µM)",42.6%
6,"CS(=O)(=O)CCNCc1ccc(-c2ccc3ncnc(Nc4ccc(OCc5cccc(F)c5)c(Cl)c4)c3c2)o1 [lapatinib] + Cc1cc(SCc2sc(-c3ccc(C(F)(F)F)c(F)c3)nc2C)ccc1OCC(=O)O [GW0742] (first compound 0.8 µM, partner dose 2 µM)",210%
7,"C[C@]12O[C@H](C[C@]1(O)CO)n1c3ccccc3c3c4c(c5c6ccccc6n2c5c31)CNC4=O [Lestaurtinib] + Nc1ccn([C@@H]2O[C@H](CO)[C@@H](O)C2(F)F)c(=O)n1 [gemcitabine] (first compound 0.004 µM, partner dose 0.0004 µM)",87.2%
